Measured values as given in PMC7976564.
No constants are given. Whether binding was seen depends on the method and setting. Binding seen in cells or lysates may run through a third protein. Some entries that bind do so weakly or less than the wild type.

The chains behind the UniProt entries cited, without tags or fusion partners. Residues count along the entry.
UniProt O35547: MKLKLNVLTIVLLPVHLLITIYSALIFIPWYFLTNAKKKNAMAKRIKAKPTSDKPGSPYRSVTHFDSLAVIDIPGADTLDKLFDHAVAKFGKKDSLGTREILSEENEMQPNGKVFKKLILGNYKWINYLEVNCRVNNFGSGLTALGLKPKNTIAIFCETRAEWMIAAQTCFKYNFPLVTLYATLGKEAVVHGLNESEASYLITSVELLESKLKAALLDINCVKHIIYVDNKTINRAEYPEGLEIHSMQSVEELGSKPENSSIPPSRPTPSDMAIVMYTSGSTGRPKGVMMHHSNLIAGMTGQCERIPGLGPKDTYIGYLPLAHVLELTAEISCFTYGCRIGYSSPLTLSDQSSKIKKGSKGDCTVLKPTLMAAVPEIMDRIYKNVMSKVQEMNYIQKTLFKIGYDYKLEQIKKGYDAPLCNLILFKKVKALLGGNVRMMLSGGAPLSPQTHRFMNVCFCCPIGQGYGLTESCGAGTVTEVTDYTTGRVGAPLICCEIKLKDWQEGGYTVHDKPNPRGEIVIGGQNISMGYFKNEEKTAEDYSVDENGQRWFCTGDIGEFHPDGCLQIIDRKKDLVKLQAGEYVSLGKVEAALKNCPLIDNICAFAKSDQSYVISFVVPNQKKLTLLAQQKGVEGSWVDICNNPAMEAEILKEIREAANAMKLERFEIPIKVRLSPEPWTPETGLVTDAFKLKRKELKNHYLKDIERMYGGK
UniProt Q5I0H3, residues 1-97: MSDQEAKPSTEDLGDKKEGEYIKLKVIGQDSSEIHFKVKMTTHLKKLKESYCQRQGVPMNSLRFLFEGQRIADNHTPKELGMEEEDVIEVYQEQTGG

Target: acyl-CoA synthetase long-chain family member 4 (rat (endogenous in H9c2)) (UniProt O35547)
Test: co-IP; anti-ACSL4 antibody added to 500 µL H9c2 protein extract overnight at 4 °C, agarose beads, eluted by boiling in SDS reducing sample buffer, immunoblot for SUMO-1; cells infected with Ad5/F11p.SENP1 or Ad5/F11p.Null

binding: binds
Substance: SUMO1 (from UniProt Q5I0H3 1-97)
